{
  "source": "patent US8703179B2",
  "about": "“Mucosal formulation” (Kimberly-Clark Worldwide, Inc., priority 2006, dated 2014)",
  "format_in_all_cases": "cell-based",
  "key": {"Candida albicans": {"test_system": "Candida albicans", "assay": "Growth inhibition (minimum inhibitory concentration, gross turbidity)", "details": "comparison of MIC across the four organisms of Table 2", "method": "The ability of the phosphocholine derivatives of Examples 1-2 to inhibit growth of Candida albicans, Staphylococcus aureus, Lactobacillus acidophilus, and Gardnerella vaginale was tested. Each phosphocholine derivative (at concentrations ranging from 0 to 500 micrograms per milliliter) was dissolved into a broth media and 6 wt. % ethanol. Thereafter, 0.1 milliliter of each solution was inoculated in 1.0 milliliter of a growth media containing the microorganism of interest. The growth media was TSB media for Candida albicans and Staphylococcus aureus, MRS broth for Lactobacillus acidophilus, and NYC-3 broth enriched proteose peptone for Gardnerella vaginale. The concentration of the microorganism in the growth media was 10^4 colony forming units (“CFU”) per milliliter.\nThereafter, the gross turbidity of the media was monitored at 24, 48, and 72 hours time intervals. Gross turbidity is an indicative of growth inhibition and is determined using visual determination or a spectrophotometer. The concentration of the phosphocholine derivative at which no turbidity is detected is designated as the “minimum inhibitory concentration.” Phosphocholine derivatives having lower minimum inhibitory concentrations are generally considered to have better antimicrobial efficacy."}, "[1]": {"test_system": "L. acidophilus (lactobacilli)", "assay": "Time-dependent inhibition (organism count)", "details": "Tables 4 and 5; ascribed to organism instability in the media and the protocol", "source_text": "(§1) Hexadecyl phosphocholine (“BRB-1”) was studied for inhibition of Candida albicans (C. albicans), Staphylococcus aureus (S. aureus), and lactobacilli. The results are shown below in Tables 3-4. Tetradecyl phosphocholine (“BRB-3”) was also studied for inhibition of C. albicans aureus, and lactobaccili."}, "[2]": {"test_system": "Staphylococcus aureus (S. aureus)", "assay": "Time-dependent inhibition (organism count)", "details": "Tables 3 and 5", "source_text": "as §1"}, "[3]": {"test_system": "Candida albicans (C. albicans)", "assay": "Time-dependent inhibition (organism count)", "details": "Tables 3 and 5", "source_text": "as §1"}},
  "note": "For at least one compound, name, drawing or mass did not settle the structure.",
  "data": [
    {"compound": "CCCCCCCCCCCCCCCCOP(=O)([O-])OCC[N+](C)(C)C", "note": "[BRB-1, hexadecyl phosphocholine]", "values": [
      {"measurement": "Selectivity of growth inhibition (in words)", "setting": "Candida albicans", "result": "selectively inhibit the growth of C. albicans and G. vaginale over L. acidophilus and S. aureus"},
      {"measurement": "Inhibition of lactobacilli (in words)", "setting": "[1]", "result": "some inhibtion"},
      {"measurement": "Inhibition of S. aureus (in words)", "setting": "[2]", "result": "particularly good inhibition"},
      {"measurement": "Inhibition of C. albicans (in words)", "setting": "[3]", "result": "particularly good inhibition"}
    ]}
  ]
}
